Here are results for six molecules from doi:10.1101/817213.

Amino acid sequences for entries named in this document (tags omitted).
UniProt Q1MSJ5: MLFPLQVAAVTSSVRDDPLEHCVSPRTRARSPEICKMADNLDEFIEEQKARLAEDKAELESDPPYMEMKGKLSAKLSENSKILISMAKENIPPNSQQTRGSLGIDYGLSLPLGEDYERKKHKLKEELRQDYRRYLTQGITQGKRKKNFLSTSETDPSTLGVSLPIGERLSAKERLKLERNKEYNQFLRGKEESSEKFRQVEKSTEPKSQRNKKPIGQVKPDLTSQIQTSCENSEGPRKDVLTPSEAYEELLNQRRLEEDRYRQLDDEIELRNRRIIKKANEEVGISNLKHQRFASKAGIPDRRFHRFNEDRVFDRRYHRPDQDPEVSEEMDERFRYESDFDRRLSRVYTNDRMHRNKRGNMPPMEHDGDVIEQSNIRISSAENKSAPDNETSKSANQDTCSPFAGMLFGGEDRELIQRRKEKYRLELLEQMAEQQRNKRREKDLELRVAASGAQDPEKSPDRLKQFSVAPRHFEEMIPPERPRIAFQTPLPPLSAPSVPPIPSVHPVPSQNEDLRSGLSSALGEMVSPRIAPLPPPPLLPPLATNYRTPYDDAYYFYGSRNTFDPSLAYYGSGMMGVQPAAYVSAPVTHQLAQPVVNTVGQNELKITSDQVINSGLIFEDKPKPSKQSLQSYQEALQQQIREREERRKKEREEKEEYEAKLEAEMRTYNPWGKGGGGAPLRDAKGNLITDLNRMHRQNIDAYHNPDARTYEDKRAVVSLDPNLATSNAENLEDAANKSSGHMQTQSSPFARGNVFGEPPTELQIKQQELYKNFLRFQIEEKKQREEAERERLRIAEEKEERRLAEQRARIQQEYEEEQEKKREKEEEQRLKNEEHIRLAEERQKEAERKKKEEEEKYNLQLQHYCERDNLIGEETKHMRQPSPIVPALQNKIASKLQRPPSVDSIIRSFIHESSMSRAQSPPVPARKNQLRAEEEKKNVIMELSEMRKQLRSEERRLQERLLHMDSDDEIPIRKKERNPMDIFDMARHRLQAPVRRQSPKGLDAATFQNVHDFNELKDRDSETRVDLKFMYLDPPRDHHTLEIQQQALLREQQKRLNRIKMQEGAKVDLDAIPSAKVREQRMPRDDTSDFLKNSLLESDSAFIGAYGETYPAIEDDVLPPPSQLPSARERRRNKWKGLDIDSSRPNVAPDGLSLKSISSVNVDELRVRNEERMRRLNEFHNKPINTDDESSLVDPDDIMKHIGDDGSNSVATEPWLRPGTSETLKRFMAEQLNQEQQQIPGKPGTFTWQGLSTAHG
UniProt P63167: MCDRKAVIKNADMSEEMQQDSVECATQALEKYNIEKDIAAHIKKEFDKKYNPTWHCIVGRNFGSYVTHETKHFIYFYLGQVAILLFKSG
UniProt O15078: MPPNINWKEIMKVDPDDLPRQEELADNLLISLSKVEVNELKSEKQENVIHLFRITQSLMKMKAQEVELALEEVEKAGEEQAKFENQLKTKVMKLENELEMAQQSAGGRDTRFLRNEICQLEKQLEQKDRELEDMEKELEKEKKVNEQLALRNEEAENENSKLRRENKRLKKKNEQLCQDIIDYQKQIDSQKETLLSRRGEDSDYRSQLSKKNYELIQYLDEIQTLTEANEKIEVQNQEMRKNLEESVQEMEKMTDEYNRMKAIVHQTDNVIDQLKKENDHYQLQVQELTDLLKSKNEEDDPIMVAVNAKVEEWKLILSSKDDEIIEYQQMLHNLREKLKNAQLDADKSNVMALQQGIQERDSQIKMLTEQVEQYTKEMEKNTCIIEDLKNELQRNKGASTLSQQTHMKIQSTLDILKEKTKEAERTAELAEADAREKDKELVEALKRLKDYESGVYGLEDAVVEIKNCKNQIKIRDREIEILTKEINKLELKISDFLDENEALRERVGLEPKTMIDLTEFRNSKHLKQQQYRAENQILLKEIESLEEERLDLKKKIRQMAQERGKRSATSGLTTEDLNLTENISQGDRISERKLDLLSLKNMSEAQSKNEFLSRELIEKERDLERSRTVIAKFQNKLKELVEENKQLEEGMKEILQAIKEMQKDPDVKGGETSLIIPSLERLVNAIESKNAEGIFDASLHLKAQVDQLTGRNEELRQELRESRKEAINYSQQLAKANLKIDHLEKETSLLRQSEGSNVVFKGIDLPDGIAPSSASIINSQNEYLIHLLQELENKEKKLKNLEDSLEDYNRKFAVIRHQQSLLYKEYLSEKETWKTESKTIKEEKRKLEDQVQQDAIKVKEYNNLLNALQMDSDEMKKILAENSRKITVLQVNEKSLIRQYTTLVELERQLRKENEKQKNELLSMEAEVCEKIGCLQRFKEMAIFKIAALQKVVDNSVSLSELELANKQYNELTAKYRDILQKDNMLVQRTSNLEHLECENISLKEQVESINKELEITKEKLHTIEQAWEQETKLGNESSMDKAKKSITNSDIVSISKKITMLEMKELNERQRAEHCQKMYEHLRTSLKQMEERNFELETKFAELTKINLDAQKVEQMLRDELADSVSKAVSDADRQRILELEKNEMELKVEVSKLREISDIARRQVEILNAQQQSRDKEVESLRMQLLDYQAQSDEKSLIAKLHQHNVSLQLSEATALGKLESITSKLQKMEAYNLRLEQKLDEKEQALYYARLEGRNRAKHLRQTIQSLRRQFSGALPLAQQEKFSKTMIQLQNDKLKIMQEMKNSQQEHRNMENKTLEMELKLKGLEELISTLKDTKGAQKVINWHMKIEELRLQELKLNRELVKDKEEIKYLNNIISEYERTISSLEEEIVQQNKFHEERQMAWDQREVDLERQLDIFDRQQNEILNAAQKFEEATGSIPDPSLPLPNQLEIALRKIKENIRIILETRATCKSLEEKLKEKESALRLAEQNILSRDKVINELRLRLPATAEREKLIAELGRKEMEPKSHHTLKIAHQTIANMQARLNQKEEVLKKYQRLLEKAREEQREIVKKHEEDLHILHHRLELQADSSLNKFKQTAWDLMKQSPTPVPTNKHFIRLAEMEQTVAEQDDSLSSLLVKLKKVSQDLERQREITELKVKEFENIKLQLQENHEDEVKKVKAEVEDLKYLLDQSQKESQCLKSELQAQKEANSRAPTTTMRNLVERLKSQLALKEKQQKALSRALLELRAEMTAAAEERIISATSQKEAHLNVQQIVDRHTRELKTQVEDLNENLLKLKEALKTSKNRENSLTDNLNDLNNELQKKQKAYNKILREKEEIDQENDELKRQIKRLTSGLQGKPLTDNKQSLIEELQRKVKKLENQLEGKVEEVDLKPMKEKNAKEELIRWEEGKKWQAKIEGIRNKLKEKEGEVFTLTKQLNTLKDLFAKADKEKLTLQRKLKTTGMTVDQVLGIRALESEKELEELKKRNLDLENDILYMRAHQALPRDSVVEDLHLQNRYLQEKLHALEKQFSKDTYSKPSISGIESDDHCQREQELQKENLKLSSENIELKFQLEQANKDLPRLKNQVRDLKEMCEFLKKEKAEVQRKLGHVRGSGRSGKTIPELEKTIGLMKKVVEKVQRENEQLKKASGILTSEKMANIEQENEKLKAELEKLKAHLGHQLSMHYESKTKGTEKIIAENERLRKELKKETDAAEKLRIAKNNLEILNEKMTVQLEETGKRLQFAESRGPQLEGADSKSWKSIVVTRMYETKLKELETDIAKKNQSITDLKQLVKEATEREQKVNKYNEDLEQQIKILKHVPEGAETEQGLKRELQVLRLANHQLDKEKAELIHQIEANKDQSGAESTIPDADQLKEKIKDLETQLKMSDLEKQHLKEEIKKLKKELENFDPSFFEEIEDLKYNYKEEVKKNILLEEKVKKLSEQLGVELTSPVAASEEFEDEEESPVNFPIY
UniProt Q68CZ1: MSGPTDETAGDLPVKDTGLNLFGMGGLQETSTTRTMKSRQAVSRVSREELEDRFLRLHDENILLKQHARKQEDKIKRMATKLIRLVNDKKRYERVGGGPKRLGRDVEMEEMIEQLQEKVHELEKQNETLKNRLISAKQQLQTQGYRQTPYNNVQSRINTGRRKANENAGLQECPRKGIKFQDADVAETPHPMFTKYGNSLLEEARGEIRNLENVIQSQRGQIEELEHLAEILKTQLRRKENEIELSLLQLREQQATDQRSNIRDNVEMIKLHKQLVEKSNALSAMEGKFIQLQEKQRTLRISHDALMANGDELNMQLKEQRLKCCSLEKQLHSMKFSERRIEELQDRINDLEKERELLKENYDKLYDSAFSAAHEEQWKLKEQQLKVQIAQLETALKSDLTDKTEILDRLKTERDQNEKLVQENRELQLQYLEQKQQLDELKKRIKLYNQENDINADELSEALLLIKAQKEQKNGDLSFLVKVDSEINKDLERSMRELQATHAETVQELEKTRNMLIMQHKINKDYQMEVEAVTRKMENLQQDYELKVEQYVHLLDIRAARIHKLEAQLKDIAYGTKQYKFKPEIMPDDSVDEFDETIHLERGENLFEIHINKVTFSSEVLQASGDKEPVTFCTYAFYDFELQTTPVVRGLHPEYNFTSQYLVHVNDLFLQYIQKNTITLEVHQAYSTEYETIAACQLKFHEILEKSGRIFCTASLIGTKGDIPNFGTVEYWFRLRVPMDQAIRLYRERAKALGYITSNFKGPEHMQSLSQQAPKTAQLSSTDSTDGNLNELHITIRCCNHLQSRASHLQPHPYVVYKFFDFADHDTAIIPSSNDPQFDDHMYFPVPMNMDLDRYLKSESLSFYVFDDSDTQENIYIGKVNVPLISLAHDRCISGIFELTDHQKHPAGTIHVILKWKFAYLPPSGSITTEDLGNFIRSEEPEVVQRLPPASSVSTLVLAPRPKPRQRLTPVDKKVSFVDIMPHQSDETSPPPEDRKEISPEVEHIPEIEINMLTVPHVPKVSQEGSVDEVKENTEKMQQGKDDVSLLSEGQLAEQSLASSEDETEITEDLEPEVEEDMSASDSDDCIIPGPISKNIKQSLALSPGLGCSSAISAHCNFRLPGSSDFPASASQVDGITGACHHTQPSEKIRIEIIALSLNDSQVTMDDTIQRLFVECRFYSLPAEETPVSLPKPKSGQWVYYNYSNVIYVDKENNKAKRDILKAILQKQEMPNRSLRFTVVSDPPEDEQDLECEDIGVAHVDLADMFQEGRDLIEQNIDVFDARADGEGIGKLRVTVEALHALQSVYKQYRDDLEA

Common to all, as to assay: affinity purification with mass spectrometry
Experiment [1] deals with T1, SF-TAP tagged CCDC66 (UniProt A2RUB6).
T1 sequence: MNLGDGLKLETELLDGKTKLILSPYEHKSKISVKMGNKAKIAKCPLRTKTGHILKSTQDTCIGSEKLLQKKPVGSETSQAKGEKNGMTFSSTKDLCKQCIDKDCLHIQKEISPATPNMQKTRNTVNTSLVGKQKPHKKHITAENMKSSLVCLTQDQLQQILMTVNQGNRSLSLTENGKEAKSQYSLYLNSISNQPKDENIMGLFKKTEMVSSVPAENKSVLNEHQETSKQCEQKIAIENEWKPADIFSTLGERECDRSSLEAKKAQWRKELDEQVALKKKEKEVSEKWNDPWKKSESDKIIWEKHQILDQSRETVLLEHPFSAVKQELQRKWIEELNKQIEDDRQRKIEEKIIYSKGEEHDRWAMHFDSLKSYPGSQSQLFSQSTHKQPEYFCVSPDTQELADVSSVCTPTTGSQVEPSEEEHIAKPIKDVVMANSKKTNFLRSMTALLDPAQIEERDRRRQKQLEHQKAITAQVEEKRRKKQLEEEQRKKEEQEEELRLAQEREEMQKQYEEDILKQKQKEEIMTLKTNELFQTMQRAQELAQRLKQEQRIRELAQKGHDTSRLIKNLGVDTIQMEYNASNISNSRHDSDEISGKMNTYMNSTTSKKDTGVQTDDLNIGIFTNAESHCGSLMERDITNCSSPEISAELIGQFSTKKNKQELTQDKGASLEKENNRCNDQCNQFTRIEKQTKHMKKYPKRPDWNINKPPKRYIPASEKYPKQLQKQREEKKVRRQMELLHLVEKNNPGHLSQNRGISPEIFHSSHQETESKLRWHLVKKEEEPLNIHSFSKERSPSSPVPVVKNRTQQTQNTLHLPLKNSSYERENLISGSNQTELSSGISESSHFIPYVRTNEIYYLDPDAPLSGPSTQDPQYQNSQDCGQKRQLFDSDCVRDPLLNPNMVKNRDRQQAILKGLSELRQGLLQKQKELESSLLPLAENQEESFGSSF

Experiment [2] has as its target SF-TAP tagged CSPP1 (TAP bait) (UniProt Q1MSJ5).
The target of experiment [3] is N-terminally SF-TAP tagged TOGARAM1 (human).

These are yes or no findings as the source states them, for the method shown. Binding seen in cells or lysates may run through a third protein. These calls come from enrichment with a bait or labelling near it, and not all partners need be listed. For some of these results: Where a sequence is shown, tags or fusion partners need not be part of it.

For “endogenous DYNLL1 (HEK293T) (from UniProt P63167 1-89)”, the binding entry in experiment [1] is “binds”.
As for “endogenous CEP290 (HEK293T) (from UniProt O15078 1-2479)”, the binding entry in experiment [2] is “binds”.
The same measure, in the same setting: the entry for “endogenous RPGRIP1L (HEK293T) (from UniProt Q68CZ1 1-1315)” is “binds”.

B1: endogenous IFT74 (HEK293T) (protein, UniProt Q96LB3 1-600)
chain: MASNHKSSAARPVSRGGVGLTGRPPSGIRPLSGNIRVATAMPPGTARPGSRGCPIGTGGVLSSQIKVAHRPVTQQGLTGMKTGTKGPQRQILDKSYYLGLLRSKISELTTEVNKLQKGIEMYNQENSVYLSYEKRAETLAVEIKELQGQLADYNMLVDKLNTNTEMEEVMNDYNMLKAQNDRETQSLDVIFTERQAKEKQIRSVEEEIEQEKQATDDIIKNMSFENQVKYLEMKTTNEKLLQELDTLQQQLDSQNMKKESLEAEIAHSQVKQEAVLLHEKLYELESHRDQMIAEDKSIGSPMEEREKLLKQIKDDNQEIASMERQLTDTKEKINQFIEEIRQLDMDLEEHQGEMNQKYKELKKREEHMDTFIETFEETKNQELKRKAQIEANIVALLEHCSRNINRIEQISSITNQELKMMQDDLNFKSTEVQKSQSTAQNLTSDIQRLQLDLQKMELLESKMTEEQHSLKSKIKQMTTDLEIYNDLPALKSSGEEKIKKLHQERMILSTHRNAFKKIMEKQNIEYEALKTQLQENETHSQLTNLERKWQHLEQNNFAMKEFIATKSQESDYQPIKKNVTKQIAEYNKTIVDALHSTSGN
In the case of B1, the binding entry in experiment [3] is given as “binds”.

B2: endogenous ARMC9 (HEK293T) (protein, UniProt Q7Z3E5 1-818)
chain: MGDILAHESELLGLVKEYLDFAEFEDTLKTFSKECKIKGKPLCKTVGGSFRDSKSLTIQKDLVAAFDNGDQKVFFDLWEEHISSSIRDGDSFAQKLEFYLHIHFAIYLLKYSVGRPDKEELDEKISYFKTYLETKGAALSQTTEFLPFYALPFVPNPMVHPSFKELFQDSWTPELKLKLIKFLALISKASNTPKLLTIYKENGQSNKEILQQLHQQLVEAERRSVTYLKRYNKIQADYHNLIGVTAELVDSLEATVSGKMITPEYLQSVCVRLFSNQMRQSLAHSVDFTRPGTASTMLRASLAPVKLKDVPLLPSLDYEKLKKDLILGSDRLKAFLLQALRWRLTTSHPGEQRETVLQAYISNDLLDCYSHNQRSVLQLLHSTSDVVRQYMARLINAFASLAEGRLYLAQNTKVLQMLEGRLKEEDKDIITRENVLGALQKFSLRRPLQTAMIQDGLIFWLVDVLKDPDCLSDYTLEYSVALLMNLCLRSTGKNMCAKVAGLVLKVLSDLLGHENHEIQPYVNGALYSILSVPSIREEARAMGMEDILRCFIKEGNAEMIRQIEFIIKQLNSEELPDGVLESDDDEDEDDEEDHDIMEADLDKDELIQPQLGELSGEKLLTTEYLGIMTNTGKTRRKGLANVQWSGDEPLQRPVTPGGHRNGYPVVEDQHTPPQTAQHARNGHPQALPAAHEAVYREGKPSTPESCVSSSSAIIAKPGEWLPRGRQEEPRPAPTGTPRQPREAPQDPGNGVTTRECASAFTCKPRAPCTPEMLDWNPPKAKASVLAPLFSSCGPQQASRPGSTASSTRGLPSSQSHRK
Regarding B2, the binding result in experiment [3] and in experiment [1] was “binds” in each case.

B3: endogenous CEP104 (HEK293T) (protein, UniProt O60308 1-925)
chain: MPHKIGFVVVSSSGHEDGFSARELMIHAPTVSGWRSPRFCQFPQEIVLQMVERCRIRKLQLLAHQYMISSKIEFYISESLPEYFAPYQAERFRRLGYVSLCDNEKTGCKARELKSVYVDAVGQFLKLIFHQNHVNKYNIYNQVALVAINIIGDPADFSDESNTASREKLIDHYLGHNSEDPALEGTYARKSDYISPLDDLAFDMYQDPEVAQIIRKLDERKREAVQKERYDYAKKLKQAIADLQKVGERLGRYEVEKRCAVEKEDYDLAKEKKQQMEQYRAEVYEQLELHSLLDAELMRRPFDLPLQPLARSGSPCHQKPMPSLPQLEERGTENQFAEPFLQEKPSSYSLTISPQHSAVDPLLPATDPHPKINAESLPYDERPLPAIRKHYGEAVVEPEMSNADISDARRGGMLGEPEPLTEKALREASSAIDVLGETLVAEAYCKTWSYREDALLALSKKLMEMPVGTPKEDLKNTLRASVFLVRRAIKDIVTSVFQASLKLLKMIITQYIPKHKLSKLETAHCVERTIPVLLTRTGDSSARLRVTAANFIQEMALFKEVKSLQIIPSYLVQPLKANSSVHLAMSQMGLLARLLKDLGTGSSGFTIDNVMKFSVSALEHRVYEVRETAVRIILDMYRQHQASILEYLPPDDSNTRRNILYKTIFEGFAKIDGRATDAEMRARRKAATEEAEKQKKEEIKALQGQLAALKEIQAEVQEKESDAVKPKNQDIQGGKAAPAEALGIPDEHYLDNLCIFCGERSESFTEEGLDLHYWKHCLMLTRCDHCKQVVEISSLTEHLLTECDKKDGFGKCYRCSEAVFKEELPRHIKHKDCNPAKPEKLANRCPLCHENFSPGEEAWKAHLMGPAGCTMNLRKTHILQKAPALQPGKSSAVAASGPLGSKAGSKIPTPKGGLSKSSSRTYAKR
On to B3, for which, in experiment [3], the binding entry is listed as “binds”.
